In PubChem BioAssay AID256 (DTP/NCI, 2004) one finds survivor count and T/C data, which are given here for 29 compounds.

Structures are written as SMILES. The list is a part of this screen's results and no random one: it gathers tests that were run many times, whatever their T/C, doses with no T/C, and many T/C values between a quarter and a half above the control. Other doses and runs of a compound stand elsewhere. T/C gives the treated animals as a percentage of the vehicle group. Some doses have a count of surviving animals in place of a T/C: the source holds a T/C of zero for them, seemingly a mark for toxic or unscored doses. Some survivor counts are full or nearly so, which does not show that the dose was tolerated: survival well below the control is almost never listed, so the zero probably covers shortened survival too. Survivors were counted at the toxicity check, usually on the fifth day, unless a day is given; later deaths do not show. Schedule codes are those of the source, read here as Q, the interval in days (D) or hours (H), X, the number of doses. Some doses were run more than once; the results are listed from low to high. For survival time, this PubChem deposit counts one and a half times the control or more as active, and values a quarter to a half above the control carry no call in these data; other NCI protocols may use other cut-offs. Some T/C values are followed by the survivors on the day toxicity was checked, most often the fifth; without a count, all were alive then.

In the assay the test system is CD2F1 mice, L1210 leukemia ip, survival T/C. Briefly: NCI In Vivo Anticancer Drug Screen. Data for tumor model L1210 Leukemia (intraperitoneal) in CD2F1 (CDF1) mice. Conditions: higher T/C = longer survival. The procedure, abridged:
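Antitumor effect is scored in animals hosting a serially transplanted tumor. Values compare compound-dosed animals against vehicle-only controls as a simple quotient.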

[1] abbreviates: T/C endpoint: mean survival time, dose: 400.0 mg/kg/injection, schedule: Q01DX001 (ip), vehicle: saline.
Setting [2] is: T/C endpoint: mean survival time, dose: 100.0 mg/kg/injection, schedule: Q04DX003 (ip), vehicle: saline with Tween-80.
Where [3] appears, read: T/C endpoint: mean survival time, dose: 200.0 mg/kg/injection, schedule: Q04DX003 (ip), vehicle: saline with Tween-80.
[4] abbreviates: T/C endpoint: mean survival time, dose: 400.0 mg/kg/injection, schedule: Q04DX003 (ip), vehicle: saline with Tween-80.
The mark [5] stands for this setting: T/C endpoint: mean survival time, dose: 400.0 mg/kg/injection, schedule: Q01DX009 (ip), vehicle: saline with Tween-80.
[6] abbreviates: T/C endpoint: mean survival time, dose: 10.0 mg/kg/injection, schedule: Q01DX009 (ip), vehicle: saline.
[7] abbreviates: T/C endpoint: mean survival time, dose: 100.0 mg/kg/injection, schedule: Q04DX002 (ip), vehicle: saline with Tween-80.
Where [8] appears, read: T/C endpoint: mean survival time, dose: 400.0 mg/kg/injection, schedule: Q01DX009 (ip), vehicle: saline.

Turning to `NC1CCCCCCC1O` (stereo not drawn), the survivor count is listed as 0 of 6 (T/C endpoint: mean survival time, dose: 100.0 mg/kg/injection, schedule: Q01DX001 (ip), vehicle: saline sonified); 0 of 6 (T/C endpoint: mean survival time, dose: 200.0 mg/kg/injection, schedule: Q01DX001 (ip), vehicle: saline sonified); 0 of 6 (T/C endpoint: mean survival time, dose: 400.0 mg/kg/injection, schedule: Q01DX001 (ip), vehicle: saline sonified).
In the case of `O=C(O)c1cccc(C(=O)O)c1C(=O)O.[NH-]C1CCCCC1[NH-].[Pt+2]`, the T/C is, setting by setting: (T/C endpoint: median survival time, dose: 25.0 mg/kg/injection, schedule: Q04DX003 (ip), vehicle: saline) 132 % of control; (T/C endpoint: median survival time, dose: 50.0 mg/kg/injection, schedule: Q04DX003 (ip), vehicle: saline) 137 % of control.
Regarding `C1CCC2(CC1)OCCS2`, the survivor count under setting [1] was 1 of 6.
Turning to `O=C1NC(=O)C2CC(Br)C(Br)CC12` (stereo not drawn), the survivor count (T/C endpoint: mean survival time, dose: 40.0 mg/kg/injection, schedule: Q01DX001 (ip), vehicle: saline) is 0 of 6; the survivor count (T/C endpoint: mean survival time, dose: 75.0 mg/kg/injection, schedule: Q01DX001 (ip), vehicle: saline) is recorded as 0 of 6; the survivor count (T/C endpoint: mean survival time, dose: 80.0 mg/kg/injection, schedule: Q01DX001 (ip), vehicle: saline) is reported as 0 of 6; the survivor count (T/C endpoint: mean survival time, dose: 150.0 mg/kg/injection, schedule: Q01DX001 (ip), vehicle: saline) is listed as 0 of 6; the survivor count (T/C endpoint: mean survival time, dose: 300.0 mg/kg/injection, schedule: Q01DX001 (ip), vehicle: saline) is 0 of 6.
Consider `C[N+]1(C)CCc2ccccc2C1Cc1ccc(Oc2ccc(CC3c4ccccc4CC[N+]3(C)C)cc2)cc1` (stereo not drawn), for which the survivor count is listed as 0 of 3 (T/C endpoint: mean survival time, dose: 0.78 mg/kg/injection, schedule: Q01DX009 (ip), vehicle: saline); 0 of 3 (T/C endpoint: mean survival time, dose: 3.13 mg/kg/injection, schedule: Q01DX009 (ip), vehicle: other); 0 of 3 (T/C endpoint: mean survival time, dose: 6.25 mg/kg/injection, schedule: Q01DX009 (ip), vehicle: other); 0 of 3 (T/C endpoint: mean survival time, dose: 12.5 mg/kg/injection, schedule: Q01DX009 (ip), vehicle: other).
On to `O=C1C=C(SCCO)C(=O)c2ccccc21`, for which the survivor count is 3 of 6 and 6 of 6 (T/C endpoint: mean survival time, dose: 5.0 mg/kg/injection, schedule: Q04DX003 (ip), vehicle: saline with Tween-80); 2 of 6 (T/C endpoint: mean survival time, dose: 10.0 mg/kg/injection, schedule: Q04DX003 (ip), vehicle: saline with Tween-80); 0 of 6 (T/C endpoint: mean survival time, dose: 20.0 mg/kg/injection, schedule: Q04DX003 (ip), vehicle: saline with Tween-80); 0 of 6 under setting [2]; 0 of 6 under setting [3]; 0 of 6 under setting [4].
Take `CCOC(=O)CCl`: where the note is “T/C endpoint: mean survival time, dose: 400.0 mg/kg/injection, schedule: Q04DX003 (ip), vehicle: other”, the survivor count is listed as 0 of 6.
For the compound `CN1CCc2cc(O)cc3c2C1Cc1ccc(O)c(O)c1-3` (stereo not drawn), the T/C (T/C endpoint: mean survival time, dose: 400.0 mg/kg/injection, schedule: Q04DX003 (ip), vehicle: DMSO) was 128 % of control.
As to `O=C(Nc1cccc2ccccc12)OC1CCCCC1Br` (stereo not drawn), the survivor count (T/C endpoint: mean survival time, dose: 25.0 mg/kg/injection, schedule: Q01DX001 (ip), vehicle: saline with Tween-80) was 3 of 3.
Turning to `Cc1cc(Br)c[nH]c1=O`, the survivor count under setting [5] was 3 of 6.
`CS(=O)(=O)OCC(/C=C/C(COS(C)(=O)=O)OS(C)(=O)=O)OS(C)(=O)=O` (stereo not drawn): the T/C (T/C endpoint: mean survival time, dose: 25.0 mg/kg/injection, schedule: Q01DX009 (ip), vehicle: Klucel (hydroxypropylcellulose) (HPC)) is 128 % of control and the T/C (T/C endpoint: mean survival time, dose: 50.0 mg/kg/injection, schedule: Q01DX009 (ip), vehicle: Klucel (hydroxypropylcellulose) (HPC)) is 134 % of control.
As to `c1cnc2ncncc2n1`, the survivor count under setting [5] is on record as 0 of 6.
Turning to `c1ccc2c(c1)ccc1c2c[n+](CCCCCCCC[n+]2cc3c4ccccc4ccc3c3ccccc32)c2ccccc12`, the T/C (T/C endpoint: mean survival time, dose: 6.25 mg/kg/injection, schedule: Q04DX003 (ip), vehicle: distilled water + Tween-80) was 125 % of control; the T/C (T/C endpoint: mean survival time, dose: 12.5 mg/kg/injection, schedule: Q04DX003 (ip), vehicle: distilled water + Tween-80) is 130 % of control; the T/C (T/C endpoint: mean survival time, dose: 25.0 mg/kg/injection, schedule: Q04DX003 (ip), vehicle: distilled water + Tween-80) was 135 % of control.
As for `C[C@@H]1C[C@@H]([C@H](O)CC2CC(=O)NC(=O)C2)C(=O)[C@@H](C)C1`, the T/C under setting [6] is listed as 94, 105, 113, 117 % of control; the T/C (T/C endpoint: mean survival time, dose: 20.0 mg/kg/injection, schedule: Q01DX009 (ip), vehicle: saline) is given as 97, 108, 116, 118, 121 % of control; the T/C (T/C endpoint: mean survival time, dose: 40.0 mg/kg/injection, schedule: Q01DX009 (ip), vehicle: saline) was 108, 118, 124 [5 of 6 alive], 132 [5 of 6 alive], 145 % of control; the T/C (T/C endpoint: mean survival time, dose: 80.0 mg/kg/injection, schedule: Q01DX009 (ip), vehicle: saline) is 135 % of control; the T/C (T/C endpoint: median survival time, dose: 50.0 mg/kg/injection, schedule: Q01DX009 (ip), vehicle: saline) was 131 and 132 % of control; the T/C (T/C endpoint: median survival time, dose: 100.0 mg/kg/injection, schedule: Q01DX009 (ip), vehicle: saline) is 139 and 145 % of control. Further, the survivor count is recorded as 3 of 6 under setting [6]; 0 of 6 (T/C endpoint: mean survival time, dose: 160.0 mg/kg/injection, schedule: Q01DX009 (ip), vehicle: saline); 0 of 6 (T/C endpoint: median survival time, dose: 200.0 mg/kg/injection, schedule: Q01DX009 (ip), vehicle: saline).
For the compound `NC(=S)N/N=C/C(=O)c1ccc(Br)cc1`, the survivor count under setting [1] is listed as 2 of 6.
Turning to `CC(=O)[O][Hg][c]1c(C)c(C)[c]([Hg][O]C(C)=O)c(C)c1C`, the survivor count under setting [7] was 0 of 3.
`CN(C)/C=N/N1C(=O)CSC1=S`: the survivor count reads like this: (T/C endpoint: mean survival time, dose: 200.0 mg/kg/injection, schedule: Q04DX003 (ip), vehicle: saline) 1 of 6; (T/C endpoint: mean survival time, dose: 400.0 mg/kg/injection, schedule: Q04DX003 (ip), vehicle: saline) 0 of 6.
As for `Cn1c(CC(O)(C(F)(F)Cl)C(F)(F)Cl)cc(=O)n1-c1ccccc1`, the survivor count under setting [5] is on record as 3 of 6.
As to `NC(=S)c1ncnc2c1ncn2C1OC(CO)C(O)C1O` (stereo not drawn), for the setting “T/C endpoint: median survival time, dose: 140.0 mg/kg/injection, schedule: Q01DX005 (ip), vehicle: water”, the T/C was 126 and 135 % of control [5 of 6 alive]. Where the note is “T/C endpoint: median survival time, dose: 280.0 mg/kg/injection, schedule: Q01DX005 (ip), vehicle: water”, the survivor count is reported as 1 of 6.
Take `CCOc1ccc2nc3cc(N)ccc3c(N)c2c1`: the survivor count reads like this: (T/C endpoint: mean survival time, dose: 200.0 mg/kg/injection, schedule: Q01DX009 (ip), vehicle: saline) 6 of 6; under setting [8], 2 of 6.
Regarding `O=C1C(NCCO)=C(N2CC2)C(=O)C(NCCO)=C1N1CC1`, the T/C (T/C endpoint: median survival time, dose: 0.12 mg/kg/injection, schedule: Q01DX009 (ip), vehicle: saline) was 130 % of control.
As to `Cc1cn(C(C=O)OC(C=O)CO)c(=O)[nH]c1=O` (stereo not drawn), where the note is “T/C endpoint: mean survival time, dose: 80.0 mg/kg/injection, schedule: Q01DX005 (ip), vehicle: water”, the T/C was 133 % of control. Besides, the survivor count (T/C endpoint: mean survival time, dose: 160.0 mg/kg/injection, schedule: Q01DX005 (ip), vehicle: water) is reported as 4 of 6.
Regarding `O=C1CCC(C(=O)Nc2ccc(Cl)cc2Cl)N1` (stereo not drawn), the survivor count under setting [7] is recorded as 3 of 3.
Consider `O=C1C2C3CCC(O3)C2C(=O)N1CO` (stereo not drawn), for which the survivor count was 2 of 3 (T/C endpoint: mean survival time, dose: 200.0 mg/kg/injection, schedule: Q04DX002 (ip), vehicle: saline with Tween-80) and 0 of 3 (T/C endpoint: mean survival time, dose: 400.0 mg/kg/injection, schedule: Q04DX002 (ip), vehicle: saline with Tween-80).
Consider `COC(=O)C1C2CCC(COC(C)=O)(O2)C1C(=O)O` (stereo not drawn), for which, under setting [8], the survivor count is listed as 6 of 6.
For `Cc1ccc(S(=O)(=O)SCc2ccccc2)cc1`, the survivor count (T/C endpoint: mean survival time, dose: 400.0 mg/kg/injection, schedule: Q01DX009 (ip), vehicle: other) is reported as 0 of 6.
As for `CC(=O)NC1CCCCC1`, the survivor count under setting [5] is 0 of 6.
As for `CCN(CC)C(=O)c1ccc[n+](CC(=O)Nc2ccc(Cl)cc2)c1`, the survivor count is listed as 2 of 6 under setting [2], 0 of 6 under setting [3] and 0 of 6 under setting [4].
For `NC(CC(=O)NO)C(=O)O` (stereo not drawn), the T/C under setting [8] was 125 % of control and the T/C (T/C endpoint: mean survival time, dose: 800.0 mg/kg/injection, schedule: Q01DX009 (ip), vehicle: saline) was 135 % of control.
